# Primary screen of a compound library

Protein sequences, listed by entry. Tags and fused reporters are not part of them.
UniProt E9BF75, entry or part of it: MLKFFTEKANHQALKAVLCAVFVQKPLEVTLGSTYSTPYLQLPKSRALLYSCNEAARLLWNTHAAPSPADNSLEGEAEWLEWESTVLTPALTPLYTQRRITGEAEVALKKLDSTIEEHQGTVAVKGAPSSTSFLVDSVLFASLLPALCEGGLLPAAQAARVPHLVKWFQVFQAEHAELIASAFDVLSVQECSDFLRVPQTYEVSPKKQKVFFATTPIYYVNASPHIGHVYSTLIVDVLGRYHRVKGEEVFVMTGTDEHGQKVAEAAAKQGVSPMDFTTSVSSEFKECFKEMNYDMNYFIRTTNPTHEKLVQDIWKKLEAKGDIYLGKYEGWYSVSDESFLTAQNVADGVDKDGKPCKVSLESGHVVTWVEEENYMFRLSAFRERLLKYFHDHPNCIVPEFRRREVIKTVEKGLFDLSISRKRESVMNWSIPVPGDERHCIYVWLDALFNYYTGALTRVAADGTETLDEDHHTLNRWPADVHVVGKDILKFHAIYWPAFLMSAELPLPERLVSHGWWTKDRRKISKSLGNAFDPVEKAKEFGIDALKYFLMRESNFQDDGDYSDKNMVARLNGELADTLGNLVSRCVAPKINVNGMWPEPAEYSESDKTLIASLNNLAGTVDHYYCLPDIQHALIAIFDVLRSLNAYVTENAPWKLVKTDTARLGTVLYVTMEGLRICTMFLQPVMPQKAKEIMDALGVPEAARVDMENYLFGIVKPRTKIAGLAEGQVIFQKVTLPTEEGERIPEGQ

From ChEMBL document CHEMBL3988442, “University of Dundee, Small-Polar-MMV Screening Library” (2021).

LdMetRS: 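Methionyl-tRNA synthetase (putative), Leishmania donovani (UniProt E9BF75). Primary screen of methionyl-tRNA synthetase; the read-out is not stated. The test concentration is not given. The values are filed as inhibition. Of about 68,000 compounds tested this way, about 24 (0.035%) reached 50% or more in at least one test.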
Mtb heat-shock: 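Assay on Mycobacterium tuberculosis, filed only as a heat shock assay from Cornell; the read-out is not stated. The concentration is filed as 10 mM, unlikely as a test dose, so the dose is not known. The record gives no direction; compounds that gave an IC50 in retests scored well above the rest, so higher reads as stronger inhibition. Of about 69,000 compounds tested this way, about 930 (1.4%) reached 50% or more in at least one test.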

Results are percentages, as filed.
The controls that fix the scale are not given in the record; negative values are as filed.
This is an unselected part of the compounds tested.
A dash means the value is not listed here; it may have been measured.

SMILES	LdMetRS	Mtb heat-shock
CN1CCN(c2nccc(-c3cncnc3C3CCCCC3)n2)CC1	14.81	-13.95
COc1ccc(CCC(=O)N2CCCC(n3cncn3)C2)cc1 (stereo unspecified)	13.89	3.697
COc1ccc(CN2CCC3(CCCN(C)C3=O)C2)c(Cl)c1OC (stereo unspecified)	12.23	0.2161
CN1CCC(N(CCc2ccccc2)C(=O)c2ccc(C#N)cc2)CC1	12.66	21.16
Fc1ccccc1CC1CCN(Cc2cscn2)CC1	10.42	-8.017
O=C(O)C(F)(F)F.[H][C@@]12CCN(CCc3ccccc3)C[C@]1([H])[C@H](C(=O)NC1CC1)CCO2	-	-9.964
COC(=O)c1ccc(N2CCC(c3ccccc3)CC2)nn1	13.73	9.524
Cc1cc(C(=O)N2CCOC(c3nc(C)n[nH]3)C2)[nH]n1 (stereo unspecified)	8.156	20.22
CCN1CCc2c(sc3c2C(=O)NC(/C=C\c2ccccc2)N3)C1 (stereo unspecified)	6.286	-24.35
N#Cc1ccc(NCCCOCC2CCCO2)c(F)c1 (stereo unspecified)	7.397	19.77
COCCn1ccc(=O)c(OCC(=O)Nc2cccc(C(C)=O)c2)c1C	9.544	17.1
CCCn1nnnc1COc1ccc(C(=O)OC)cc1	8.169	-0.502
CN(C)CCCNC(=O)C1CC(=O)N(c2n[nH]c3cccc(F)c23)C1 (stereo unspecified)	13.03	-25.42
CCc1nc(CN2CCN(C(=O)c3cc(C)nn3C)CC2)cs1	6.529	-3.045
CCOCc1nc(N2CCOCC2)sc1C(=O)NCc1ccco1	-2.87	-7.022
Cc1c(C2CCCN(C(=O)c3ccn(C)n3)C2)n2c(nc1=O)CCC2 (stereo unspecified)	8.333	-16.23
CCN(CC)C(=O)COc1nc(C(C)C)no1	8.01	-6.792
CN(C)[C@@H]1CN(Cc2cccnc2)C[C@H]1c1cn(C)c2ccccc12.Cl	-	-21.78
Cc1nc(C2CCCN(C(=O)c3cnn(C(C)(C)C)c3)C2)no1 (stereo unspecified)	8.333	-19.74
CC(C)n1nc(CN2CCOCC2)c2c1CN(C(=O)c1ccno1)C2	8.831	-
Cc1cc(CC(=O)N2CCc3cc(Br)sc3C2)n[nH]1	1.805	-29.03
CSC(CNS(=O)(=O)c1cnn(C)c1)c1cccc(Cl)c1 (stereo unspecified)	6.983	2.412
Cc1ccccc1S(=O)(=O)N(C)[C@@H]1CC[C@@H](n2ccnc2C)[C@@H]1O	7.558	-17.23
CC(C)C1CN(C(=O)c2ccncc2)CCS1 (stereo unspecified)	8.075	-6.981
Cc1cnc(C(=O)N2CCOCC2c2ccccc2)cn1 (stereo unspecified)	7.508	6.268
COc1ccc2c(ccn2CC(=O)Nc2n[nH]c(C(C)C)n2)c1	16.49	4.096
CCC(O)Cn1nc(CCSC)nc1-c1ccc2c(c1)OCCO2 (stereo unspecified)	7.521	-24.79
O=C(O)C(F)(F)F.[H][C@]12CCC[C@@H](CN(C)C3CC3)[C@@]1([H])CN(c1cc(OC)ncn1)C2	-	-25.39
COCC1CC2(CCN(c3cccc(C)n3)CC2)CN1c1ncccn1.O=C(O)C(F)(F)F (stereo unspecified)	-	14.8
CSc1[nH]nc(NC(=O)c2ccccc2)c1C#N	12.9	-4.998
Cc1ccc(N2CC[C@@H]3[C@@H]2CCN3C(=O)c2cscn2)nn1	8.759	-
CCNC(=O)[C@@H]1C[C@@H](NC(=O)Cc2cc(C)no2)CN1Cc1ccsc1	11.31	-13.96
CN1C[C@@H]2CC[C@H](CC1=O)N2C(=O)c1ccc(-c2ccccc2)[nH]c1=O	9.804	-
COCCCN(C)c1nc(-c2ccncc2)nc2c1CCN(C(C)=O)C2	4.839	-76.33
COCCN1C[C@H]2CC[C@@H]1CN(Cc1cc(=O)c3cc(C)ccc3[nH]1)C2	17.35	-
CNC(=O)c1ccc2c(c1)C1(CCN(CC(C)C)CC1)C(=O)N2	18.22	-
Cc1nc(CNC(=O)NC2CCCN(c3ncccn3)C2)cs1 (stereo unspecified)	22.7	-2.215
CNS(=O)(=O)CC(=O)N(C1CCCC1)C1CC1	14.29	-1.825
O=C(O)C(F)(F)F.[H][C@@]12CN(c3cccnc3)CC[C@]1([H])CN(c1nccc(C(F)(F)F)n1)C2	-	15.33
O=C(C1CCOCC1)N1CCc2ncc(CN3CCCC3)n2CC1	12.44	-
CC(=O)NC1CCCN(C(=O)Nc2nnc(C(C)C)s2)C1 (stereo unspecified)	15.21	-0.4369
CC[C@H](C)[C@H](N)C(=O)Nc1nc(-c2cnc(N3CCOCC3)nc2)cs1	29.37	11.24
N[C@H]1CN(CCCOc2ccccc2)C[C@@H]1C1CC1	13.87	0.1023
O=C(c1cccc2[nH]ncc12)N1CCCC1c1noc(C2CC2)n1 (stereo unspecified)	6.103	24.36
COc1c(CNCc2ccccc2CN2CCOCC2)c(C)nn1C	1.299	5.389
COCCN(C)CC(=O)N1C[C@@H](C)[C@](O)(C(C)C)C1	8.883	3.181
CCc1[nH]ncc1C(=O)N1CCCC(n2ccnc2C(C)C)C1 (stereo unspecified)	20.98	-2.246
Cc1cc(C(=O)N2C[C@H]3CCC[C@@]3(CO)C2)c2ccc(F)cc2n1	15.85	-
Cc1nc(C(=O)N2CCC3(CC2)CC(=O)N(CC2CCCO2)C3)cs1 (stereo unspecified)	-1.299	9.581
CCCNC(=O)CCNC(=O)N1CCC(=Cc2ccccc2)CC1	7.258	-16.3
CN(C)Cc1ccc(C(=O)N2CCCC(n3cccn3)C2)cc1 (stereo unspecified)	-	-19.52
CCN1CCN(C)C2(CCN(Cc3ccsc3)CC2)C1=O	17.63	-
Cn1cc(CNC2CCc3ncnn3C2)c(-c2ccncc2)n1 (stereo unspecified)	-	-8.229

The first 5 entries again:

* CN1CCN(c2nccc(-c3cncnc3C3CCCCC3)n2)CC1 | LdMetRS: 14.81%; Mtb heat-shock: -13.95%
* COc1ccc(CCC(=O)N2CCCC(n3cncn3)C2)cc1 (stereo unspecified) | LdMetRS: 13.89%; Mtb heat-shock: 3.697%
* COc1ccc(CN2CCC3(CCCN(C)C3=O)C2)c(Cl)c1OC (stereo unspecified) | LdMetRS: 12.23%; Mtb heat-shock: 0.2161%
* CN1CCC(N(CCc2ccccc2)C(=O)c2ccc(C#N)cc2)CC1 | LdMetRS: 12.66%; Mtb heat-shock: 21.16%
* Fc1ccccc1CC1CCN(Cc2cscn2)CC1 | LdMetRS: 10.42%; Mtb heat-shock: -8.017%